One assay has as its target human 5-HT6R (Homo sapiens, UniProt P50406). The assay can be described thus: 5-HT6R radioligand competitive binding assay ([3H]LSD). The note with it: read-out: Ki ± SEM (5-HT6R), membranes of transfected HEK-293 cells, mean of two to four experiments in triplicate.
A further assay has as its target T1, human 5-HT6R WT (Homo sapiens, UniProt P50406).
T1 construct: host or cells: HEK-293
Briefly: 5-HT6R AC assay (cAMP), wild type receptor. The note with it: HEK-293 cells, 5-HT at 10 x EC50. It counts as cell-based.

Protein sequences, listed by entry. Tags and fused reporters are not part of them.
UniProt P50406, whole entry: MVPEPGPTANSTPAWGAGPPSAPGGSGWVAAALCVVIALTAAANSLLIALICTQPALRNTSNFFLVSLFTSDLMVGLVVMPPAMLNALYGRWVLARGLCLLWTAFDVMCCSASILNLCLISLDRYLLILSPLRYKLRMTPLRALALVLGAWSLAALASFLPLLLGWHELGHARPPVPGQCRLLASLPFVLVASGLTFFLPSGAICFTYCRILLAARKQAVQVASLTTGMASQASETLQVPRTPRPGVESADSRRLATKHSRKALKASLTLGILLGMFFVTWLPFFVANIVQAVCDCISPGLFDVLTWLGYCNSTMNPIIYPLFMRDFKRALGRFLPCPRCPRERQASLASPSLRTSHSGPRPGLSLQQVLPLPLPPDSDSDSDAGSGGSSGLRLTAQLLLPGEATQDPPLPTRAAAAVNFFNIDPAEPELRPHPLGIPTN

The structures appear in SMILES notation.

Regarding `COc1ccc(NS(=O)(=O)c2ccc(I)cc2)cc1N1CCN(C)CC1` [SB-258585, reference compound], the inhibition constant Ki (usually a dissociation constant, usually derived from enzyme kinetics or from competition with a known ligand) on human 5-HT6R is 4.5 ± 0.2 nM. For the same compound, the “pIC50, inhibition of 5-HT-induced stimulation of cAMP” value on human 5-HT6R WT worked out at 7.6 ± 0.1.

Source of the values: article PMC5259792, “A new serotonin 5-HT6 receptor antagonist with procognitive activity – Importance of a halogen bond interaction to stabilize the binding” (Scientific Reports, 2017).
